Values from PubChem BioAssay AID743458 (Peter MacCallum Cancer Centre, 2014).
The whole screen tested about 1,800 reagents; shown is a random part of them. Over the whole deposit, 732 (41%) are marked active. 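Calls are per siRNA reagent; a gene was deemed confirmed only if most of its four siRNAs scored.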 Unmarked entries are inactive. The numbers tell different reagents against one gene apart.

Test: 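Find knock-downs that make vorinostat-resistant colon cancer cells sensitive again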 (follow-up of hits)
System: human HCT116-VR colon cancer cells made resistant to vorinostat
Reagents: single siRNA or pool against human genes, 25 nM per single siRNA
Timing: about 72 h after transfection, including 24 h of drug
Challenge: vorinostat, 2.5 µM final, for 24 h
Measurement: 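Cell viability by fluorescence and apoptosis by caspase 3/7 luminescence under vorinostat, background-corrected, averaged across two plate copies and given as fold change versus mock transfection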
Direction: viability relative to mock: higher = more living cells than mock; caspase activity relative to mock: higher = more apoptosis than mock
Active means: 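Active means a reduced-viability or caspase-activation class, anything else inactive; classes could only be given to wells that looked healthy when left untreated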

| gene | reagent | viability relative to mock | caspase activity relative to mock | viability hit class | caspase hit class |
| --- | --- | --- | --- | --- | --- |
| INTS6L (integrator complex subunit 6 like) | 1 | 0.68 (active) | 3.54 | no change | caspase activation |
| INTS6L (integrator complex subunit 6 like) | 2 | 0.66 (active) | 2.7 | no change | caspase activation |
| INTS6L (integrator complex subunit 6 like) | 3 | 1 | 1.19 | no change | no change |
| INTS6L (integrator complex subunit 6 like) | 4 | 0.86 | 2.24 | no change | no change |
| RHBDD3 (rhomboid domain containing 3) | 1 | 0.58 | 1.82 | no change | no change |
| RHBDD3 (rhomboid domain containing 3) | 2 | 0.72 | 1.56 | no change | no change |
| RHBDD3 (rhomboid domain containing 3) | 3 | 0.75 (active) | 4 | no change | caspase activation |
| RHBDD3 (rhomboid domain containing 3) | 4 | 0.85 | 2.11 | no change | no change |
| ZFAND5 (zinc finger AN1-type containing 5) | 1 | 0.94 | 1.19 | no change | no change |
| ZFAND5 (zinc finger AN1-type containing 5) | 2 | 1.12 | 1.39 | no change | no change |
| ZFAND5 (zinc finger AN1-type containing 5) | 3 | 0.97 | 1.19 | no change | no change |
| ZFAND5 (zinc finger AN1-type containing 5) | 4 | 1.01 | 1.08 | no change | no change |
| ASH2L (ASH2 like, histone lysine methyltransferase complex subunit) | 1 | 0.81 | 1.27 | no change | no change |
| ASH2L (ASH2 like, histone lysine methyltransferase complex subunit) | 2 | 0.73 (active) | 4.06 | no change | caspase activation |
| ASH2L (ASH2 like, histone lysine methyltransferase complex subunit) | 3 | 0.74 | 1.52 | no change | no change |
| ASH2L (ASH2 like, histone lysine methyltransferase complex subunit) | 4 | 0.69 (active) | 2.85 | no change | caspase activation |
| PRPF8 (pre-mRNA processing factor 8) | 1 | 0.44 | 1.62 | no change | no change |
| PRPF8 (pre-mRNA processing factor 8) | 2 | 0.53 (active) | 1.85 | reduced viability | no change |
| PRPF8 (pre-mRNA processing factor 8) | 3 | 0.46 (active) | 2.29 | reduced viability | no change |
| PRPF8 (pre-mRNA processing factor 8) | 4 | 0.64 (active) | 2.75 | no change | caspase activation |
| AP5S1 (adaptor related protein complex 5 subunit sigma 1) | 1 | 0.4 (active) | 4.54 | reduced viability | caspase activation |
| AP5S1 (adaptor related protein complex 5 subunit sigma 1) | 2 | 1.08 | 1.32 | no change | no change |
| AP5S1 (adaptor related protein complex 5 subunit sigma 1) | 3 | 0.82 (active) | 3.06 | no change | caspase activation |
| AP5S1 (adaptor related protein complex 5 subunit sigma 1) | 4 | 0.84 (active) | 3.16 | no change | caspase activation |
| TCAP (titin-cap) | 1 | 0.72 | 2.02 | no change | no change |
| TCAP (titin-cap) | 2 | 0.64 (active) | 5.89 | no change | caspase activation |
| TCAP (titin-cap) | 3 | 0.62 (active) | 3.42 | no change | caspase activation |
| TCAP (titin-cap) | 4 | 0.88 | 1.49 | no change | no change |
| SPSB3 (splA/ryanodine receptor domain and SOCS box containing 3) | 1 | 0.9 | 1.01 | no change | no change |
| SPSB3 (splA/ryanodine receptor domain and SOCS box containing 3) | 2 | 0.84 | 1.16 | no change | no change |
| SPSB3 (splA/ryanodine receptor domain and SOCS box containing 3) | 3 | 0.36 (active) | 0.64 | reduced viability | no change |
| SPSB3 (splA/ryanodine receptor domain and SOCS box containing 3) | 4 | 0.92 | 2.01 | no change | no change |
| HNRNPK (heterogeneous nuclear ribonucleoprotein K) | 1 | 0.69 | 1.52 | no change | no change |
| HNRNPK (heterogeneous nuclear ribonucleoprotein K) | 2 | 0.38 (active) | 2.7 | reduced viability | caspase activation |
| HNRNPK (heterogeneous nuclear ribonucleoprotein K) | 3 | 0.6 | 1.79 | no change | no change |
| HNRNPK (heterogeneous nuclear ribonucleoprotein K) | 4 | 0.51 (active) | 2 | reduced viability | no change |
| RNF19B (ring finger protein 19B) | 1 | 0.94 | 1.56 | no change | no change |
| RNF19B (ring finger protein 19B) | 2 | 1.01 | 1.14 | no change | no change |
| RNF19B (ring finger protein 19B) | 3 | 1.07 | 1.81 | no change | no change |
| RNF19B (ring finger protein 19B) | 4 | 1.07 | 1.36 | no change | no change |
| TRIM71 (tripartite motif containing 71) | 1 | 0.96 | 1.27 | no change | no change |
| TRIM71 (tripartite motif containing 71) | 2 | 0.9 | 1.66 | no change | no change |
| TRIM71 (tripartite motif containing 71) | 3 | 0.72 | 1.47 | no change | no change |
| TRIM71 (tripartite motif containing 71) | 4 | 0.86 | 0.86 | no change | no change |
| SEC61B (SEC61 translocon subunit beta) | 1 | 0.24 | 2.91 | no change | no change |
| SEC61B (SEC61 translocon subunit beta) | 2 | 0.8 | 1.27 | no change | no change |
| SEC61B (SEC61 translocon subunit beta) | 3 | 0.94 | 0.95 | no change | no change |
| SEC61B (SEC61 translocon subunit beta) | 4 | 0.5 (active) | 2 | reduced viability | no change |
| KCNK6 (potassium two pore domain channel subfamily K member 6) | 1 | 0.98 | 1.77 | no change | no change |
| KCNK6 (potassium two pore domain channel subfamily K member 6) | 2 | 0.92 | 0.97 | no change | no change |
| KCNK6 (potassium two pore domain channel subfamily K member 6) | 3 | 0.86 | 2.42 | no change | no change |
| KCNK6 (potassium two pore domain channel subfamily K member 6) | 4 | 0.8 (active) | 3.64 | no change | caspase activation |
| PPIAL4A (peptidylprolyl isomerase A like 4A) | 1 | 0.82 | 2.12 | no change | no change |
| PPIAL4A (peptidylprolyl isomerase A like 4A) | 2 | 0.84 | 2.26 | no change | no change |
| PPIAL4A (peptidylprolyl isomerase A like 4A) | 3 | 0.7 (active) | 2.93 | no change | caspase activation |
| PPIAL4A (peptidylprolyl isomerase A like 4A) | 4 | 1.02 | 1.01 | no change | no change |
| FAM3C (FAM3 metabolism regulating signaling molecule C) | 1 | 0.84 (active) | 3.15 | no change | caspase activation |
| FAM3C (FAM3 metabolism regulating signaling molecule C) | 2 | 0.74 (active) | 2.98 | no change | caspase activation |
| FAM3C (FAM3 metabolism regulating signaling molecule C) | 3 | 0.9 | 1.44 | no change | no change |
| FAM3C (FAM3 metabolism regulating signaling molecule C) | 4 | 0.68 | 2.12 | no change | no change |

Reprinted from the listing for reference:
| gene | reagent | viability relative to mock | caspase activity relative to mock | viability hit class | caspase hit class |
| --- | --- | --- | --- | --- | --- |
| RNF19B (ring finger protein 19B) | 2 | 1.01 | 1.14 | no change | no change |
| RNF19B (ring finger protein 19B) | 3 | 1.07 | 1.81 | no change | no change |
| RNF19B (ring finger protein 19B) | 4 | 1.07 | 1.36 | no change | no change |
| TRIM71 (tripartite motif containing 71) | 1 | 0.96 | 1.27 | no change | no change |
| TRIM71 (tripartite motif containing 71) | 2 | 0.9 | 1.66 | no change | no change |
| TRIM71 (tripartite motif containing 71) | 3 | 0.72 | 1.47 | no change | no change |
| TRIM71 (tripartite motif containing 71) | 4 | 0.86 | 0.86 | no change | no change |
| SEC61B (SEC61 translocon subunit beta) | 1 | 0.24 | 2.91 | no change | no change |
| SEC61B (SEC61 translocon subunit beta) | 2 | 0.8 | 1.27 | no change | no change |
| SEC61B (SEC61 translocon subunit beta) | 3 | 0.94 | 0.95 | no change | no change |
